Measurements taken from patent US20120141538A1.
These are yes or no findings as the source states them, for the method shown. Some binding calls cover weakened binding; strength is not graded here.

Protein sequences, listed by entry. Tags and fused reporters are not part of them. Lines headed by an entry give the natural chain unless they say otherwise; changes in a name come on top.
UniProt P49238: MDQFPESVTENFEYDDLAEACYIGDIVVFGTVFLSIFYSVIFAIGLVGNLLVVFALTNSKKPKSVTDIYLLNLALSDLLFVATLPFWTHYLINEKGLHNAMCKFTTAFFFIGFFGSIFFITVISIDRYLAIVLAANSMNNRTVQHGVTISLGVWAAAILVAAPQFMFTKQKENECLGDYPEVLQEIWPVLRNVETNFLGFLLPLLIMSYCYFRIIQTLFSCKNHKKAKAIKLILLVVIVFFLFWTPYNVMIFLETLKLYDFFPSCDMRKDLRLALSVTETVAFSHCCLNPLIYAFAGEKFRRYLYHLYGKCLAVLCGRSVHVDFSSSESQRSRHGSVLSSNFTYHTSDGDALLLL
UniProt P78423: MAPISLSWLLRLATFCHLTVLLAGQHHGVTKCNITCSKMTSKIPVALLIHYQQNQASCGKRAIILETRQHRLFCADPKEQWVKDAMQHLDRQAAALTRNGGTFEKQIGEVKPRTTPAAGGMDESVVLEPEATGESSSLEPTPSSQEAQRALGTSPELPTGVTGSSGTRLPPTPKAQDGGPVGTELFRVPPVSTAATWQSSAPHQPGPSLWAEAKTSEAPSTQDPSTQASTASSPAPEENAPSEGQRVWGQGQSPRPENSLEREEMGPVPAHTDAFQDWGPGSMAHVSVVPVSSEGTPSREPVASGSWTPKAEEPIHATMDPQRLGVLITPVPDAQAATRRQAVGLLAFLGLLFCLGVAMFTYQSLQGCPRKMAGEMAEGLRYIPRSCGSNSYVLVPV

Molecular target: human CX3CR1 receptor (human) (UniProt P49238)
Test: competitive radioligand binding on CHO-CX3CR1 cells

Substance: CX3CL1 (native human soluble chemokine) (from UniProt P78423 25-100) (ligand)
- binding: binds
